Data taken from article PMC8505418.

Tests used:
[1] = molecular target: GST-Ku70 SS77/78EE S77E,S78E (human) (UniProt P12956); assay: EMSA; conditions: 1 mM Mg2+, poly[d-(I-C)] competitor; 40 ug GST-fusion protein, 0.8 ng probe, 25 uL; 10 mM Tris-HCl pH 7.5, 50 mM NaCl, 1 mM MgCl2, 0.5 mM DTT, 4% glycerol, 1 ug poly[d-(I-C)], 0.1 ug poly-L-lysine; recombinant protein; residues 2-609; protein details: N-terminal GST (pGEX-6P-1); label: digoxigenin (DIG Gel Shift Kit)
[2] = molecular target: GST-Ku70 SS77/78DD S77D,S78D (human) (UniProt P12956); assay: EMSA; conditions: 1 mM Mg2+, poly[d-(I-C)] competitor; 40 ug GST-fusion protein, 0.8 ng probe, 25 uL; 10 mM Tris-HCl pH 7.5, 50 mM NaCl, 1 mM MgCl2, 0.5 mM DTT, 4% glycerol, 1 ug poly[d-(I-C)], 0.1 ug poly-L-lysine; recombinant protein; residues 2-609; protein details: N-terminal GST (pGEX-6P-1); label: digoxigenin (DIG Gel Shift Kit)

Sequence: TAGAGACGGGGTTTCACCGTGTTACCAGG / GATCTAACACACGGTGAAACCCCGTCTCTATGC [DIG-labeled DSB probe]
- binding result [1]: binds more weakly
- binding result [2]: binds more weakly

Construct, isoform or probe ends are uncertain for at least one entry. The comparison behind a weaker result is the experiment's own reference, which may not be listed here. At least one verdict rests on a figure or table, not on a statement of the authors.
